Data from the supplement of paper PMC7646827.
Structures can show the parent of a compound that is named as a salt. Single values are uncertain, as repeats are few or missing.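 All cells are established human bladder cancer lines, one derived from a patient-derived xenograft. A luminescent ATP assay measured viability as percent inhibition relative to vehicle across seven dilutions. The paper rates scores above 59 very active, 30–59 active, 21–29 semi-active, 9–20 low active, below 9 inactive.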

Key:
Assay in all cases: drug sensitivity score DSS3 (score 0-100); higher = more sensitive; extreme values may be limits of the assay
Conditions in all cases: culture: 3D, ultra-low attachment; treatment time: 5 days
[1] = tested on: TCCSUP
[2] = tested on: 5637
[3] = tested on: UM-UC-17
[4] = tested on: J82
[5] = tested on: UM-UC-12
[6] = tested on: T-24
[7] = tested on: UM-UC-9
[8] = tested on: UM-UC-14
[9] = tested on: UM-UC-6
[10] = tested on: UM-UC-15
[11] = tested on: UM-UC-5
[12] = tested on: UM-UC-18
[13] = tested on: BC8149
[14] = tested on: SW780
[15] = tested on: UM-UC-3
[16] = tested on: SCaBER
[17] = tested on: UM-UC-1

| Compound | drug sensitivity score DSS3 [1] | drug sensitivity score DSS3 [2] | drug sensitivity score DSS3 [3] | drug sensitivity score DSS3 [4] | drug sensitivity score DSS3 [5] | drug sensitivity score DSS3 [6] | drug sensitivity score DSS3 [7] | drug sensitivity score DSS3 [8] | drug sensitivity score DSS3 [9] | drug sensitivity score DSS3 [10] | drug sensitivity score DSS3 [11] | drug sensitivity score DSS3 [12] | drug sensitivity score DSS3 [13] | drug sensitivity score DSS3 [14] | drug sensitivity score DSS3 [15] | drug sensitivity score DSS3 [16] | drug sensitivity score DSS3 [17] |
| --- | --- | --- | --- | --- | --- | --- | --- | --- | --- | --- | --- | --- | --- | --- | --- | --- | --- |
| O=C1Nc2ccccc2/C1=C1/Nc2ccccc2C1=O [Indirubin] (max dose 10000 nM) | 0 | 0 | 2.71 | 0 | 0 | 0 | 0 | 0 | 1.13 | 0 | 0 | 6.38 | 20 | 0 | 0 | – | – |
| O=C(c1ccc(F)c(F)c1Nc1ccc(I)cc1F)N1CC(O)([C@@H]2CCCCN2)C1 [Cobimetinib (GDC-0973, RG7420)] (max dose 10000 nM) | 25.4 | 31.5 | 3.58 | 0 | 12.1 | – | 0.931 | 10.4 | 2.01 | 11.7 | 26 | 2.9 | 13.1 | 0.959 | 21.4 | 39.6 | 19.4 |
| CC(C)c1cnn2c(NCc3ccccc3-n3cccn3)nc(OC3CCCNC3)nc12 (centres undefined) (max dose 10000 nM) | 6.78 | 4.37 | 8.48 | 0 | 0 | – | 1.22 | 3.78 | 13.2 | 30.8 | 0 | 4.55 | 0.0951 | 0 | 0 | 0.131 | 0 |
| CNC(=O)[C@@H](NC(=O)[C@H](CCCc1ccccc1)[C@H](C)N(O)C=O)C(C)(C)C (max dose 10000 nM) | 0 | 0 | 0 | 0 | 0 | – | 0 | 0 | 0 | 14 | 0 | 0 | 0 | 0 | 0 | 0 | 0 |
| Cn1cnc([N+](=O)[O-])c1Sc1ncnc2[nH]cnc12 [Azathioprine] (max dose 10000 nM) | 3.14 | 2.63 | 0.596 | 0.868 | 0 | – | 0 | 2.79 | 1.8 | 0 | 0.145 | 10.5 | 1.48 | 0 | 2.35 | 0.943 | 0 |
| CNC(=O)c1cc(COc2nnc(Nc3ccc(Cl)cc3)c3ccoc23)ccn1 [Telatinib] (max dose 10000 nM) | 4.27 | 8.65 | 1.5 | – | 1.13 | 0 | 0 | 0 | 1.38 | 0.111 | 2.84 | 5.13 | 4.48 | 0 | 21.7 | – | 0.106 |
| C=CC(=O)N1C[C@H](Nc2ncnc3[nH]ccc23)CC[C@@H]1C (max dose 10000 nM) | 0 | 0 | 0 | 0 | 0 | – | 0 | 0 | 0 | 0 | 0 | 0 | 0 | 0 | 0 | 0 | 0 |
| CC(C)c1cc(-c2ccc(F)c3ccccc23)nc(N)n1 (max dose 10000 nM) | 0 | 0 | 0 | 0 | 0 | – | 0 | 0 | 0 | 0.139 | 0 | 0 | 0 | 0 | 0 | 0 | 0 |
| COc1ccc(-n2nc(C(N)=O)c3c2C(=O)N(c2ccc(N4CCCCC4=O)cc2)CC3)cc1 [Apixaban] (max dose 10000 nM) | 0.259 | 0.939 | 0 | 0.417 | 0 | – | 0 | 0.786 | 0 | 0 | 0 | 2.89 | 3.97 | 0 | 2.17 | 1.13 | 0.858 |
| O=C1[C@H](Cc2ccc(O)cc2)N2C(=O)CCN(C(=O)NCc3ccccc3)[C@H]2CN1Cc1cccc2ccccc12 [ICG-001] (max dose 10000 nM) | 0 | 0.873 | 0 | 0 | 1.86 | – | 0.292 | 0.912 | 0.993 | 0 | 0 | 0 | 0 | 0 | 0 | 0.0687 | 0 |
| O=C([C@@H](Cc1cccc(C(F)(F)F)c1)NS(=O)(=O)c1cc(F)c2c(c1)CCNC2)N1CCCC1 [PFI-2 HCl] (max dose 10000 nM) | 15 | 0.109 | 6.47 | 0 | 0 | – | 0 | 8.37 | 4.46 | 0 | 0 | 0 | 0 | 0 | 1.55 | 0 | 9.95 |

Exported as comma-separated lines: part of the list above.
Compound,drug sensitivity score DSS3 [1],drug sensitivity score DSS3 [2],drug sensitivity score DSS3 [3],drug sensitivity score DSS3 [4],drug sensitivity score DSS3 [5],drug sensitivity score DSS3 [6],drug sensitivity score DSS3 [7],drug sensitivity score DSS3 [8],drug sensitivity score DSS3 [9],drug sensitivity score DSS3 [10],drug sensitivity score DSS3 [11],drug sensitivity score DSS3 [12],drug sensitivity score DSS3 [13],drug sensitivity score DSS3 [14],drug sensitivity score DSS3 [15],drug sensitivity score DSS3 [16],drug sensitivity score DSS3 [17]
CNC(=O)[C@@H](NC(=O)[C@H](CCCc1ccccc1)[C@H](C)N(O)C=O)C(C)(C)C (max dose 10000 nM),0,0,0,0,0,–,0,0,0,14,0,0,0,0,0,0,0
Cn1cnc([N+](=O)[O-])c1Sc1ncnc2[nH]cnc12 [Azathioprine] (max dose 10000 nM),3.14,2.63,0.596,0.868,0,–,0,2.79,1.8,0,0.145,10.5,1.48,0,2.35,0.943,0
